# Measured values from PubChem BioAssay AID248 (DTP/NCI, 2004).
# The list does not hold the whole screen: it is rich in T/C values a quarter to a half above the control, in often repeated tests (any T/C) and in doses without a T/C. Other doses and runs of a compound stand elsewhere. T/C gives the treated animals as a percentage of the vehicle group. Some entries give survivors of the animals treated and no T/C: the source files T/C as zero there, which appears to mark a toxic dose or a test without result, not a measured value. Some doses without a T/C left all or most animals alive at the check, yet need not have been tolerated: survival well below the control is almost never listed, so the zero probably covers shortened survival too. Counts of survivors are from the toxicity check (mostly the fifth day) where no day follows; animals may have died later. Schedules are NCI's codes, taken here to give the interval after Q, in days (D) or hours (H), and the number of doses after X. Some schedules carry Z or #; the key to these is not given. For survival time, this PubChem deposit counts one and a half times the control or more as active, and values a quarter to a half above the control carry no call in these data; other NCI protocols may use other cut-offs. Some T/C values carry the count of animals alive at the toxicity check (mostly the fifth day); where none is given, no animal had died by that day. Some doses were run more than once; the results are listed from low to high. Marks such as (2×) give the number of equal values in this list.
# Test system: L1210 leukemia ip in BDF1 mice, survival T/C
# Experiment: NCI In Vivo Anticancer Drug Screen. Data for tumor model L1210 Leukemia (intraperitoneal) in B6D2F1 (BDF1) mice
# Conditions: T/C endpoint: mean survival time, higher T/C = longer survival
compound,measurement,setting,value
CC[C@](O)(C(=O)O)c1cc2n(c(=O)c1CO)Cc1cc3ccccc3nc1-2,T/C,"dose: 10.0 mg/kg/injection, schedule: Q04DX003 (ip), vehicle: water",131 and 134 % of control
same,T/C,"dose: 10.0 mg/kg/injection, schedule: Q08DX002 (ip), vehicle: water",140 % of control
same,T/C,"dose: 10.0 mg/kg/injection, schedule: Q## X002 (ip), vehicle: saline",129 % of control
same,T/C,"dose: 10.0 mg/kg/injection, schedule: Q## X003 (ip), vehicle: saline",133 % of control
same,T/C,"dose: 10.0 mg/kg/injection, schedule: Q## X008 (ip), vehicle: saline",137 % of control
same,survivor count,"dose: 14.5 mg/kg/injection, schedule: Q01DX006 (iv), vehicle: saline",6 of 6
same,survivor count,"dose: 14.5 mg/kg/injection, schedule: Q01DX Z (sc), vehicle: saline",4 of 6
same,T/C,"dose: 16.0 mg/kg/injection, schedule: Q01DX001 (ip), vehicle: saline, evaluated on day 30",134 % of control
same,T/C,"dose: 16.0 mg/kg/injection, schedule: Q01DX001 (ip), vehicle: saline, run until all animals had died","111, 126, 131, 133 % of control"
same,survivor count,"dose: 16.0 mg/kg/injection, schedule: Q01DX009 (ip), vehicle: saline",9 of 10
same,survivor count,"dose: 16.0 mg/kg/injection, schedule: Q01DX010 (ip), vehicle: saline",1 of 6
same,survivor count,"dose: 16.0 mg/kg/injection, schedule: Q01DX010 (iv), vehicle: saline",3 of 6
same,survivor count,"dose: 16.0 mg/kg/injection, schedule: Q01DX Z (ip), vehicle: saline",6 of 6
same,survivor count,"dose: 16.0 mg/kg/injection, schedule: Q01DX Z (oral), vehicle: saline",6 of 6
same,T/C,"dose: 16.0 mg/kg/injection, schedule: Q07DX Z (ip), vehicle: saline",137 % of control
same,T/C,"dose: 19.0 mg/kg/injection, schedule: Q01DX001 (ip), vehicle: saline, evaluated on day 5",111 and 131 % of control
same,T/C,"dose: 19.0 mg/kg/injection, schedule: Q01DX001 (ip), vehicle: saline, evaluated on day 45",111 % of control
same,T/C,"dose: 19.0 mg/kg/injection, schedule: Q01DX001 (ip), vehicle: saline, evaluated on day 60",131 % of control
same,T/C,"dose: 20.0 mg/kg/injection, schedule: Q01DX001 (ip), vehicle: saline",146 % of control
same,T/C,"dose: 20.0 mg/kg/injection, schedule: Q01DX001 (oral), vehicle: water",130 and 132 % of control [9 of 10 alive]
same,T/C,"dose: 20.0 mg/kg/injection, schedule: Q04DX002 (ip), vehicle: saline","128 (2×), 147, 149 % of control"
same,T/C,"dose: 20.0 mg/kg/injection, schedule: Q## X003 (oral), vehicle: saline",145 % of control
same,T/C,"dose: 20.0 mg/kg/injection, schedule: Q## X008 (ip), vehicle: saline",128 % of control
same,T/C,"dose: 20.0 mg/kg/injection, schedule: Q## X008 (oral), vehicle: water",140 % of control [9 of 10 alive]
same,T/C,"dose: 20.0 mg/kg/injection, schedule: Q## X024 (ip), vehicle: saline",128 % of control
same,survivor count,"dose: 22.0 mg/kg/injection, schedule: Q01DX006 (iv), vehicle: saline",3 of 6
same,survivor count,"dose: 22.0 mg/kg/injection, schedule: Q01DX Z (sc), vehicle: saline",1 of 6
same,T/C,"dose: 24.0 mg/kg/injection, schedule: Q01DX001 (ip), vehicle: saline, evaluated on day 30",145 % of control
same,T/C,"dose: 24.0 mg/kg/injection, schedule: Q01DX001 (ip), vehicle: saline, run until all animals had died",129 % of control
same,T/C,"dose: 24.0 mg/kg/injection, schedule: Q07DX Z (ip), vehicle: saline",149 % of control
same,T/C,"dose: 25.0 mg/kg/injection, schedule: Q01DX001 (ip), vehicle: saline",144 % of control
same,T/C,"dose: 25.0 mg/kg/injection, schedule: Q04DX002 (ip), vehicle: saline",147 % of control
same,T/C,"dose: 25.0 mg/kg/injection, schedule: Q04DX003 (ip), vehicle: saline",146 % of control
same,survivor count,"dose: 32.0 mg/kg/injection, schedule: Q01DX009 (ip), vehicle: saline",9 of 10
same,survivor count,"dose: 32.0 mg/kg/injection, schedule: Q01DX010 (iv), vehicle: saline",2 of 6
same,T/C,"dose: 35.0 mg/kg/injection, schedule: Q01DX001 (ip), vehicle: saline",142 % of control
same,T/C,"dose: 36.0 mg/kg/injection, schedule: Q01DX001 (ip), vehicle: saline, evaluated on day 30",130 % of control
same,T/C,"dose: 36.0 mg/kg/injection, schedule: Q01DX001 (ip), vehicle: saline, run until all animals had died",134 % of control
same,T/C,"dose: 38.0 mg/kg/injection, schedule: Q01DX001 (ip), vehicle: saline, evaluated on day 5","120, 144, 187 % of control"
same,T/C,"dose: 38.0 mg/kg/injection, schedule: Q01DX001 (ip), vehicle: saline, evaluated on day 45",120 and 144 % of control
same,T/C,"dose: 38.0 mg/kg/injection, schedule: Q01DX001 (ip), vehicle: saline, evaluated on day 60",187 % of control
same,T/C,"dose: 40.0 mg/kg/injection, schedule: Q01DX001 (ip), vehicle: saline, evaluated on day 30","133, 144, 146 [9 of 10 alive], 156, 157 % of control"
same,T/C,"dose: 40.0 mg/kg/injection, schedule: Q01DX001 (ip), vehicle: saline, evaluated on day 40",132 % of control
same,survivor count,"dose: 40.0 mg/kg/injection, schedule: Q01DX001 (oral), vehicle: saline",3 of 10
same,T/C,"dose: 40.0 mg/kg/injection, schedule: Q01DX001 (oral), vehicle: water",140 % of control [9 of 10 alive]
same,T/C,"dose: 40.0 mg/kg/injection, schedule: Q04DX002 (ip), vehicle: saline","143, 163, 164, 179 % of control"
